Converted amounts (≈) assume the structure as drawn.
What was measured:
[1] = Cytotoxicity (MTT cell viability) on THP-1 cells; details: human, CC50, THP-1 cells (macrophage cell line devoid of HHV 8)
[2] = Cytotoxicity (MTT cell viability) on HUVEC primary cells; type: cell-based, human; details: human, huvec cells
Experimental: (§1) A stock of human HUVEC umbilical cord primary cells (Invitrogen Life Technologies, UK) was cultured in a culture medium M200 (Gibco, Life Technologies, UK) with low serum growth supplement (LSGS, Invitrogen Life Technologies, UK). The HUVEC cells were always kept in a semi-confluent state and were sub-cultured at least once a week. Prior to testing, the cells were sub-cultured no more than 3-5 times. The BC3 cells permanently infected with HHV 8 were cultured in a RPMI 1640 medium supplemented with a 10% fetal calf serum (FCS) (Invitrogen Life Technologies, UK). The BC3 cells were used to produce 100x concentrated stocks of HHV 8, as described in the literature. The pellets of the virus was suspended in RPMI, filtered through a 0.22 µm filter and stored at -80 °C until use. The quantitative analysis of viral genomes present in the stock preparation was obtained by a real-time polymerase chain reaction (qPCR). […] For infection of cells, approximately 5.0 x 10^4 HUVEC cells/mL were seeded in 12 multi-well plates. The cells were infected with HHV 8, concentrated to a multiplicity of at least 10-20 genomes per cell in an M200 containing 2 µg/mL polibrene (esadimetrin bromide) for 2 hours at 37 °C. […] Only cell mono-layers with at least 70-80% of HHV 8 infected cells were used for the experiments.

HUVEC cells = assay: as above; type: cell-based, human; details: HUVEC cells (healthy umbilical cord human primary cells)
Experimental: as §1

[3] = Cytotoxicity (MTT cell viability) on BC3 cells; type: cell-based; details: human
Experimental: A stock of human HUVEC umbilical cord primary cells (Invitrogen Life Technologies, UK) was cultured in a culture medium M200 (Gibco, Life Technologies, UK) with low serum growth supplement (LSGS, Invitrogen Life Technologies, UK). The HUVEC cells were always kept in a semi-confluent state and were sub-cultured at least once a week. Prior to testing, the cells were sub-cultured no more than 3-5 times. The BC3 cells permanently infected with HHV 8 were cultured in a RPMI 1640 medium supplemented with a 10% fetal calf serum (FCS) (Invitrogen Life Technologies, UK). The BC3 cells were used to produce 100x concentrated stocks of HHV 8, as described in the literature. The pellets of the virus was suspended in RPMI, filtered through a 0.22 µm filter and stored at -80 °C until use. The quantitative analysis of viral genomes present in the stock preparation was obtained by a real-time polymerase chain reaction (qPCR). Inocula without purified cells contained an average number of 4.7 x 10^5 viral DNA copies/mL (data not shown). For infection of cells, approximately 5.0 x 10^4 HUVEC cells/mL were seeded in 12 multi-well plates. The cells were infected with HHV 8, concentrated to a multiplicity of at least 10-20 genomes per cell in an M200 containing 2 µg/mL polibrene (esadimetrin bromide) for 2 hours at 37 °C. […]

in vitro = details: human, thp-1 cells

Row | Structure (SMILES) | CC50 [1] [µg/mL] | CC50 ([2]; HUVEC cells (healthy umbilical cord human primary cells), read-out: CC50) [µg/mL] | CC50 (HUVEC cells) [µg/mL] | CC50 ([3]; BC3 cells (lymphoma cell line permanently infected by HHV 8), read-out: CC50) [µg/mL] | CC50 ([2]; CC50) [µg/mL] | CC50 ([3]; bc3 cells) [µg/mL] | CC50 (in vitro) [µg/mL]
1 | Cc1cc(NS(=O)(=O)c2ccc(N)cc2)no1 [BC6, sulfamethoxazole] | ~125 (≈ 494 µM) | > 125 | 125.60 (≈ 496 µM) | 100 (≈ 396 µM) |  |  | 
2 | Nc1ccc(S(N)(=O)=O)cc1 [SA4, sulphanilamide] |  |  |  |  | ~250 (≈ 1450 µM) | 100 (≈ 582 µM) | ~125 (≈ 726 µM)
